The target in this assay is Thioredoxin-related transmembrane protein 2 (TMX2), endogenous (human (endogenous in HEK293)) (UniProt Q9Y320). Nature of the assay: co-IP; HEK293 lysates (50 mM Tris-HCl pH 7.5, 150 mM NaCl, 0.25% NP40) immunoprecipitated with anti-TMX2 antibody (endogenous TMX2), protein A-Sepharose, 4 °C; blots with anti-importin-β or anti-Flag antibody; cells untransfected or expressing Flag-Ran WT, Flag-Ran Q69L, Flag-importin-α, Flag-importin-β or Flag-CRM1.

Protein sequences, listed by entry. Tags and fused reporters are not part of them.
UniProt O14980: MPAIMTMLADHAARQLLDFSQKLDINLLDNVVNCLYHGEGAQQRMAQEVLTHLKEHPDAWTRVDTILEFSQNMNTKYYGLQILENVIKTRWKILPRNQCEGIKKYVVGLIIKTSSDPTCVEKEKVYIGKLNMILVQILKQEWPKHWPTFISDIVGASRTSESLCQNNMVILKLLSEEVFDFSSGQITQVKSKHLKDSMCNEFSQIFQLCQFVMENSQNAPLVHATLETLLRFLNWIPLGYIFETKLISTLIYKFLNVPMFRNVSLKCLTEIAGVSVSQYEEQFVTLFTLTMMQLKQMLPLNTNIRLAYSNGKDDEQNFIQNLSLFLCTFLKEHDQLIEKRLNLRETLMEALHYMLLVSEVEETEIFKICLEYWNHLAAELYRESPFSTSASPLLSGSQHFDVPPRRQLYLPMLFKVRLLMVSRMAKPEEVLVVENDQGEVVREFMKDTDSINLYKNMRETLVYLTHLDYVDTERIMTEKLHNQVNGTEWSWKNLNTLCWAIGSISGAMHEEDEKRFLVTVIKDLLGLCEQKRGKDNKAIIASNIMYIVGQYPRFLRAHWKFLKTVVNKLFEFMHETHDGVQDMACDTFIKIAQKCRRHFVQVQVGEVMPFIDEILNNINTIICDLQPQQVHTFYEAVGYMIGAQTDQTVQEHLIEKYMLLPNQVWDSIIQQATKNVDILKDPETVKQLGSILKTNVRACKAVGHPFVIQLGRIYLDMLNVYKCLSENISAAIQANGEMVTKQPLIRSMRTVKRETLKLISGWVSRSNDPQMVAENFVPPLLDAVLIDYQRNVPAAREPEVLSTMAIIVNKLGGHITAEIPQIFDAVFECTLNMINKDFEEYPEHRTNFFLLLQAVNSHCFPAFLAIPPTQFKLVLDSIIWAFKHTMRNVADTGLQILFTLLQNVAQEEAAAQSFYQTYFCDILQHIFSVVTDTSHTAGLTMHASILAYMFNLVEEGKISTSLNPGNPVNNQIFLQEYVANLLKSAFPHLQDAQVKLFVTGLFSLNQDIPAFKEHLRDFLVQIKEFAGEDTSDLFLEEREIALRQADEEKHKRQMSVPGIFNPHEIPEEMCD

The text below walks through data of paper PMC6814788.

These are yes or no findings as the source states them, for the method shown. In cells and extracts the contact can be indirect. A result given as binding can be weak or reduced; the word gives no strength.

As for Flag-CRM1 (from UniProt O14980 1-1071), the binding entry was “binds weakly”.
